Measured values from US20170246137A1, “SULFESTROL FOR TREATING CANCER” (CHAMAELEO PHARMA BVBA, priority 2012, published 2017).

How the values were obtained:
MDA-MB-231 = assay: In vitro direct cytotoxicity, Cell titer Blue viability, 72 hrs; settings: read-out: IC50 value, MDA-MB-231, triple negative breast cancer cell line
Experimental: (§1) Cells were maintained in vitro in RPMI 1640 containing 10% (v/v) heat inactivated FBS and 2 mM L-glutamine (growth media) at 37° C. in 5% CO2 and humidified conditions. Cells were harvested, washed, resuspended into growth medium and counted. The cells were re-suspended into assay media (RPMI 1640+1% (v/v) heat inactivated FBS+ and 2 mM L-glutamine) at 0.5-1×10^5 cells/ml (dependent upon cell type) and plated into 96-well assay plates (Corning, black-wall plates) in 50 ul/well aliquots.
(§2) Plates were incubated overnight at 37° C. in 5% humidified CO2 prior to addition of the compounds. […] Stocks of all compounds were then serially diluted. Final concentrations to which cells were exposed were 300, 150, 75, 37.5, 18.75, 9.4, 4.7, 2.3, 1.2, 0.6 μM. Positive control was Cisplatin. Cisplatin was diluted in 1% FBS media to give a stock concentration of 1 mM. Cisplatin stock was then serially diluted. Final concentrations to which cells were exposed were 100, 50, 25, 12.5, 6.3, 3.1, 1.6, 0.8, 0.4, 0.2 μM.
(§3) Plates were incubated for 72 hrs at 37° C. in 5% humidified CO2 after addition of the compounds. Viability of the cells was assessed with the Cell titer Blue™ (Promega) assay. 10 μl of Cell titer Blue™ reagents was added to each test/blank well. Plates were incubated 3 h at 37° C. in 5% humidified CO2 prior to analysis. Fluorescence was measured with a Flex II station plate reader. […]

MCF7 = assay: as above; settings: read-out: IC50 value, MCF7, hormone-dependent breast cancer cell line
Experimental: as §1, §2, §3

N.N.[Cl][Pt][Cl] [Cisplatin, reference compound]
IC50 (MDA-MB-231): 13 µM | IC50 (MCF7): 2800 nM
